No constants are given. Whether binding was seen depends on the method and setting. In cells and extracts the contact can be indirect. Some results given as binding are weak or reduced against the parent protein; the word gives no strength.
Experiments:
Assay in all cases: co-IP
[1] = target: Myc-BIRC6 (mouse) (mouse) (UniProt O88738)
[2] = target: XIAP, endogenous in HEK293T cells (human (endogenous in HEK293T)) (UniProt P98170)
[3] = target: BIRC6, endogenous in HEK293T cells (human (endogenous in HEK293T)) (UniProt Q9NR09)

Sequences of proteins named here, by UniProt entry; tags and fusion partners are left off. A change or cut given only in a name is not applied to a line headed by its entry.
UniProt O88738: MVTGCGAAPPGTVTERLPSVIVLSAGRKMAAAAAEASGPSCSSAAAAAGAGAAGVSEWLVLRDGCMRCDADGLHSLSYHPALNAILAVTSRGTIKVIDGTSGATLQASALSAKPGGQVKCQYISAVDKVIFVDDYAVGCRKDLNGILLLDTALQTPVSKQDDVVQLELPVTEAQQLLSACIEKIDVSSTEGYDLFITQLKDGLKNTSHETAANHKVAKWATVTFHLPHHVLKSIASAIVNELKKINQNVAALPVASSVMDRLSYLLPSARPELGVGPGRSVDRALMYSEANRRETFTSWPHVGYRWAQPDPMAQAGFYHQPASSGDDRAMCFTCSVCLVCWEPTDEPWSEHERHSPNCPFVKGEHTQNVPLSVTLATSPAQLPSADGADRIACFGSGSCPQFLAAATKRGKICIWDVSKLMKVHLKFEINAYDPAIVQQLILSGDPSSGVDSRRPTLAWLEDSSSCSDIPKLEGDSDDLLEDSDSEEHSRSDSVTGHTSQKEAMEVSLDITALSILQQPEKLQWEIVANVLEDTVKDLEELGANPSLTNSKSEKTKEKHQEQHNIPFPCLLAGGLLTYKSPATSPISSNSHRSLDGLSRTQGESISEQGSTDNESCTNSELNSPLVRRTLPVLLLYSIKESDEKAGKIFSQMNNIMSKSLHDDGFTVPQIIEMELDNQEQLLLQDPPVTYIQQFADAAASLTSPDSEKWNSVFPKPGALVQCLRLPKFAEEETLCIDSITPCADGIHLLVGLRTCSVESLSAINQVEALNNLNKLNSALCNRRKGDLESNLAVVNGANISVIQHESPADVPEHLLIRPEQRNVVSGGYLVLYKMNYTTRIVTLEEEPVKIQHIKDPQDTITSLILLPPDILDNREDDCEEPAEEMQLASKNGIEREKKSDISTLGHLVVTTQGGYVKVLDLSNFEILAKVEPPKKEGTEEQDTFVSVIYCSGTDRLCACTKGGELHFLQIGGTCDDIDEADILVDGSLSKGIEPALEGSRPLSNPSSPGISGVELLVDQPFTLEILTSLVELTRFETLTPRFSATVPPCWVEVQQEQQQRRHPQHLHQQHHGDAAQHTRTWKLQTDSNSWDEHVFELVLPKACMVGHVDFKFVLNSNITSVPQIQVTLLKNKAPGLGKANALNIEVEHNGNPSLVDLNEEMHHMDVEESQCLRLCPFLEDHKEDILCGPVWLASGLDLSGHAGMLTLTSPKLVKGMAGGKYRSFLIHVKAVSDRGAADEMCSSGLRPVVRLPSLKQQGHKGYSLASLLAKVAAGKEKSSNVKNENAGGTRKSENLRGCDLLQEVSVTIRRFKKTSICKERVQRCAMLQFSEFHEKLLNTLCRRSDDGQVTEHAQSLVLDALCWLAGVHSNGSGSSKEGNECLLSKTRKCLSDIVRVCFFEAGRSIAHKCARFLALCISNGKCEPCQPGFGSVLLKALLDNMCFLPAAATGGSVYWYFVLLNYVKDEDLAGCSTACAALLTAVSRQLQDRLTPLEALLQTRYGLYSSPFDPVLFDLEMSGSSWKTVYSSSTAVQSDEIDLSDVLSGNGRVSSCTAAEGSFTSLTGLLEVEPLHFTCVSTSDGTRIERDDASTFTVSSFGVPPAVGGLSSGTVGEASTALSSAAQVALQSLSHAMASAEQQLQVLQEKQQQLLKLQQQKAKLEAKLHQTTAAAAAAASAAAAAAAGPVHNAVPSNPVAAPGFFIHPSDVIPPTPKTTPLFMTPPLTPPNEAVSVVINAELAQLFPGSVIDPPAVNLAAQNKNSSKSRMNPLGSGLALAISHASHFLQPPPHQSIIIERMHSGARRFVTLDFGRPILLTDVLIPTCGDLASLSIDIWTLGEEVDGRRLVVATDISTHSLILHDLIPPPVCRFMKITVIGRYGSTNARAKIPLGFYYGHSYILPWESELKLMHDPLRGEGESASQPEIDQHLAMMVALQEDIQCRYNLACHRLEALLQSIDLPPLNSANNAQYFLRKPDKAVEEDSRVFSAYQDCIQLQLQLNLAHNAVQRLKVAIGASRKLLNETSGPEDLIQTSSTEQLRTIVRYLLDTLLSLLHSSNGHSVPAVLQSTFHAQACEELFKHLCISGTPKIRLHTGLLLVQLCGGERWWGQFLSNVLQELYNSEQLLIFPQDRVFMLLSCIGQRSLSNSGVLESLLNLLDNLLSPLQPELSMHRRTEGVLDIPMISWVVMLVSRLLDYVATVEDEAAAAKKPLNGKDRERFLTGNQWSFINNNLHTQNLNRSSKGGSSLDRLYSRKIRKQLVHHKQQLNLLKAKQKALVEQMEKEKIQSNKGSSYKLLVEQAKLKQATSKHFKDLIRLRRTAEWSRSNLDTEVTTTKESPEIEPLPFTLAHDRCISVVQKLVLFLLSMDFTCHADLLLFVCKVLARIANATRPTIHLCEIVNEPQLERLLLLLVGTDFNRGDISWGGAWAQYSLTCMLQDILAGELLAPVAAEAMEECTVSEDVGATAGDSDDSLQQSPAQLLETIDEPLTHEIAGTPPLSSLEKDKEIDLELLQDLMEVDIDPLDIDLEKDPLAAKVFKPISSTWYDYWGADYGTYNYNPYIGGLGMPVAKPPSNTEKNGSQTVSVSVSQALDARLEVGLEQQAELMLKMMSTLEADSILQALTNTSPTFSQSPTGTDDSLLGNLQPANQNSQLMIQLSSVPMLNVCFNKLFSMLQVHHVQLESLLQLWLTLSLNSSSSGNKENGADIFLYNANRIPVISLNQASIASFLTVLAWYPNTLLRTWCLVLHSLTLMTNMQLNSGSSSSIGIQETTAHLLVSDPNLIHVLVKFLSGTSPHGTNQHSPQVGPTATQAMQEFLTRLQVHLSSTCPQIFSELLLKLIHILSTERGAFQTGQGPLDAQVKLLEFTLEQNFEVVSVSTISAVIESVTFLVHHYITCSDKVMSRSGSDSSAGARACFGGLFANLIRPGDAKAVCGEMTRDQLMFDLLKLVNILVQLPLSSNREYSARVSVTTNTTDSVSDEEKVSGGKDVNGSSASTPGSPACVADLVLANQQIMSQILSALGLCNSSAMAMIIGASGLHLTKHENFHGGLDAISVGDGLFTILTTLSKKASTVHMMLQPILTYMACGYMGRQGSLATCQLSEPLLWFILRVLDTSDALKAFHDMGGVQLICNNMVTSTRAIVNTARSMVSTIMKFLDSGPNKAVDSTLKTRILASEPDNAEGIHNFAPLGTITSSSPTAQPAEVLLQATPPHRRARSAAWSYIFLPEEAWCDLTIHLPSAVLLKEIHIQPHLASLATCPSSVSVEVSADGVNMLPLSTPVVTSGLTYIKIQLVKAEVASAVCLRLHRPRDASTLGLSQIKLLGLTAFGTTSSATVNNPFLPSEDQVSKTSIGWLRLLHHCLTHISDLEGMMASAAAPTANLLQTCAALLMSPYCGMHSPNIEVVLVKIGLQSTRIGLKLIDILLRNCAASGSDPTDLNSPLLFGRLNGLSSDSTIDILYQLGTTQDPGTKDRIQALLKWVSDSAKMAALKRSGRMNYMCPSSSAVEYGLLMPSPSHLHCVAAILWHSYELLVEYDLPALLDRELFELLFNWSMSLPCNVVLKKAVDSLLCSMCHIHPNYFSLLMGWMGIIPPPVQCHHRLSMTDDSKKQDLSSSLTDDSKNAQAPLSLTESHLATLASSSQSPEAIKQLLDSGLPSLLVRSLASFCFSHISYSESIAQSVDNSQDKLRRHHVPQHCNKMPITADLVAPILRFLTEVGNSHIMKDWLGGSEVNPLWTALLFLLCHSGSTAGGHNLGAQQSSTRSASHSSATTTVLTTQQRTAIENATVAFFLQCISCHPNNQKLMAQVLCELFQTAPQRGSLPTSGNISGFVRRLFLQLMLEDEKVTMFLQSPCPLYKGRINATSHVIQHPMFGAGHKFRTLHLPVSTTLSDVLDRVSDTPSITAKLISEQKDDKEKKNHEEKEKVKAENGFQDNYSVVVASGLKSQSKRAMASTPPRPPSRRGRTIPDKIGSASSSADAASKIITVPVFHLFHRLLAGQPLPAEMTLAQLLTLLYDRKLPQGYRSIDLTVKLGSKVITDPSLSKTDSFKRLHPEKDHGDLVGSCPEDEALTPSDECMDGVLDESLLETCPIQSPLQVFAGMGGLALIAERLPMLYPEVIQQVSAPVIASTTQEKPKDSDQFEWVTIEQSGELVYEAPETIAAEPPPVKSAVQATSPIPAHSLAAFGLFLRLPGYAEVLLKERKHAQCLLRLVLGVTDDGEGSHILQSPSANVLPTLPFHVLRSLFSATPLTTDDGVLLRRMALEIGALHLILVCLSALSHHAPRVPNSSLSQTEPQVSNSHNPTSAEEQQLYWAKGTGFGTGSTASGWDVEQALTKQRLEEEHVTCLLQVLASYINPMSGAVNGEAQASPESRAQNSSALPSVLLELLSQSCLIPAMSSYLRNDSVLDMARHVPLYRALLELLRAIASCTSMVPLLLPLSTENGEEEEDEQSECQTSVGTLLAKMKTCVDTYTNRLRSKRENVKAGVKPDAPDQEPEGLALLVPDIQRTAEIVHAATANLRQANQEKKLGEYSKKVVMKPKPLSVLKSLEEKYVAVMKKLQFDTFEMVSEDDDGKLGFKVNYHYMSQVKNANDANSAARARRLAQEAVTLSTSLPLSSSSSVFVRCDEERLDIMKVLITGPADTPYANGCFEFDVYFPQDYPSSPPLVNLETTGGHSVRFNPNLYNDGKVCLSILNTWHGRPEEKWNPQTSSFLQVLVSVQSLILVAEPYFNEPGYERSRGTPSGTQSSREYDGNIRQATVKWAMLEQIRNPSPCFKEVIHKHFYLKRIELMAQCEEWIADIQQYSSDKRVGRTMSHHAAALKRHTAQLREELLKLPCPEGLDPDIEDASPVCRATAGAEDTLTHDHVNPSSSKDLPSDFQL
UniProt P98170: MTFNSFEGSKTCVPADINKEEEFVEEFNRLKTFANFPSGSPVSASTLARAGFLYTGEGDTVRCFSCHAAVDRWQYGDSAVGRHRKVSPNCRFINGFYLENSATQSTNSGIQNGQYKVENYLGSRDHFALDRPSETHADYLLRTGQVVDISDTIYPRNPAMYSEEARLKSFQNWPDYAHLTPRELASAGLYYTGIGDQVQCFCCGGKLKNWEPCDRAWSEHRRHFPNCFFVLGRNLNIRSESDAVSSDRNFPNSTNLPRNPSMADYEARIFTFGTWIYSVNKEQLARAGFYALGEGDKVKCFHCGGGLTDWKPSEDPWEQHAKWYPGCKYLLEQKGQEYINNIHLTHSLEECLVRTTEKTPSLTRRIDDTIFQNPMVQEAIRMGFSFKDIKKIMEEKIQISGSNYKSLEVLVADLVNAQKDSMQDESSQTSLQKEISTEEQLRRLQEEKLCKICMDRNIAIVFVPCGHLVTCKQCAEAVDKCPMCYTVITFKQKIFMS
UniProt P55211: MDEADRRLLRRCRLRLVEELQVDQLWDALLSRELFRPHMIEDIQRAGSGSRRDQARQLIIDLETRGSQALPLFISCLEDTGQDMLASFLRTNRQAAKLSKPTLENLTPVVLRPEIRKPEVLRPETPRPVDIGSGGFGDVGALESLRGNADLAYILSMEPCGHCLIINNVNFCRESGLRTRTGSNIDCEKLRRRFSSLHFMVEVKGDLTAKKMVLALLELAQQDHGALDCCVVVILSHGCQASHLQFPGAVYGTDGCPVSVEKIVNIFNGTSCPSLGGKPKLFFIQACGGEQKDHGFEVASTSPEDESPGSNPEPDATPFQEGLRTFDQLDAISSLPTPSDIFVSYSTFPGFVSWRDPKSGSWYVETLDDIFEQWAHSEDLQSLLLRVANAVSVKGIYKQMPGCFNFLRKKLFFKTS

binding [1] | binding [2] | binding [3] | Substance
binds | binds | binds | FLAG-tagged procaspase 9 quadruple mutant (E306A–D315A–D330A–C287A) (from UniProt P55211 1-416) (enzyme)
binds |  |  | FLAG-tagged procaspase 9 triple mutant (E306A–D315A–D330A) (from UniProt P55211 1-416) (enzyme)

— article doi:10.1101/2022.12.10.519866 (bioRxiv, 2022)
